Data on two molecules can be found in publication PMC6479703.

Chains of the proteins cited; added tags and fusions are not shown.
UniProt P35222: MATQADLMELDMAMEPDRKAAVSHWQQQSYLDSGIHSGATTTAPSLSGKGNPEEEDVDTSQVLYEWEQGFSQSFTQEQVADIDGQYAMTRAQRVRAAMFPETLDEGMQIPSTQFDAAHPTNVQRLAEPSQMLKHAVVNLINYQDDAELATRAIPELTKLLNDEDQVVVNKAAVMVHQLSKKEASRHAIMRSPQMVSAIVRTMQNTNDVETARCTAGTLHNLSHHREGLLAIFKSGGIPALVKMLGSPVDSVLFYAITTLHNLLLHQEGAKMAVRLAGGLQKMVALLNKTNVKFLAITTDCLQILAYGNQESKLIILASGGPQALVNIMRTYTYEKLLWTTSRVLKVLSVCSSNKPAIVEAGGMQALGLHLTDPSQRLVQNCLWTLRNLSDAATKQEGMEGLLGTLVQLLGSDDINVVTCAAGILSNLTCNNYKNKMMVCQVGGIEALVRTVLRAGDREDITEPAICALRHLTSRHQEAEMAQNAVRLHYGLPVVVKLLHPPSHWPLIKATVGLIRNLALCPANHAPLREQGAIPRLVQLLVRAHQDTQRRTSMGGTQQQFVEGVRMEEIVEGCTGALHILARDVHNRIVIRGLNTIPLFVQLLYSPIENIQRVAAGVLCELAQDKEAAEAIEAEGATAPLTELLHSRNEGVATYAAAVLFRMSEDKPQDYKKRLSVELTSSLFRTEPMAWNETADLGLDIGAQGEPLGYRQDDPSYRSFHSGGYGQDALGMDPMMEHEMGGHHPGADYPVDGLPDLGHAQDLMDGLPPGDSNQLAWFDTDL

Results are given in words; binding and its absence hold for the method and conditions named. In cells and extracts the contact can be indirect. Some binding calls cover weakened binding; strength is not graded here. For some assays here: Sequences can lack the tags named with a protein.

Assay [1] has as its target T1, FLAG-tagged RORα1 (UniProt P35398).
T1 sequence: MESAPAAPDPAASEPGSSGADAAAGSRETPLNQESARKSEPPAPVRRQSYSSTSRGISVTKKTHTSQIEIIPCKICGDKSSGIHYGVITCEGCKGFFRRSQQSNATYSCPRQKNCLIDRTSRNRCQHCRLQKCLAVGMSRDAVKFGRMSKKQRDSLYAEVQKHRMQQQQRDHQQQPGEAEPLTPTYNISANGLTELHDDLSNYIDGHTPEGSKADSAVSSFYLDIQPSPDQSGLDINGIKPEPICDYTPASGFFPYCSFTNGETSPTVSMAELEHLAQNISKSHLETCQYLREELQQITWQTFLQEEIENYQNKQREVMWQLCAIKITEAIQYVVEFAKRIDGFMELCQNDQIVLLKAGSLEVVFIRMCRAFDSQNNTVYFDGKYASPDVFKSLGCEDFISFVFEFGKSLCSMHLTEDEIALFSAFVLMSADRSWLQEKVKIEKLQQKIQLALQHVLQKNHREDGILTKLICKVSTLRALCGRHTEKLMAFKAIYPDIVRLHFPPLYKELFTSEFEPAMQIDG
Put plainly: co-IP; endogenous β-catenin co-immunoprecipitated with FLAG-tagged RORα constructs; cell line not stated.

In assay [2] the target is GST fusion of β-catenin (UniProt P35222). Description: pull-down; GST β-catenin bound to Glutathione-Sepharose beads, incubated with in vitro transcribed and translated RORα proteins; 20 mM Tris-HCl (pH 7.5), 150 mM NaCl, 0.2% Nonidet P40, 10% glycerol; Western blot; only the target purified.

As to “endogenous β-catenin (from UniProt P35222 1-781)”, the binding result in assay [1] is “binds”.

B1: RORα1 (retinoic acid receptor-related orphan receptor α, isoform 1), in vitro transcribed and translated (protein, UniProt P35398 1-523)
chain: T1 sequence
Regarding B1, in assay [2], the binding entry is on record as “binds”.
